The values that follow come from patent US12521402B2, “Biomarker and drug combinations for heart failure prediction” (Endothelium Scanning Nanotechnology Limited, priority 2022, dated 2026).

To fix the notation:
B1: FLOT2 (protein, UniProt Q14254 2-428, looked up)
Flotillin-2: GNCHTVGPNEALVVSGGCCGSDYKQYVFGGWAWAWWCISDTQRISLEIMTLQPRCEDVETAEGVALTVTGVAQVKIMTEKELLAVACEQFLGKNVQDIKNVVLQTLEGHLRSILGTLTVEQIYQDRDQFAKLVREVAAPDVGRMGIEILSFTIKDVYDKVDYLSSLGKTQTAVVQRDADIGVAEAERDAGIREAECKKEMLDVKFMADTKIADSKRAFELQKSAFSEEVNIKTAEAQLAYELQGAREQQKIRQEEIEIEVVQRKKQIAVEAQEILRTDKELIATVRRPAEAEAHRIQQIAEGEKVKQVLLAQAEAEKIRKIGEAEAAVIEAMGKAEAERMKLKAEAYQKYGDAAKMALVLEALPQIAAKIAAPLTKVDEIVVLSGDNSKVTSEVNRLLAELPASVHALTGVDLSKIPLIKKATGVQV
B2: FAM3B (protein, UniProt P58499 30-235, looked up)
Protein FAM3B: ELIPDAPLSSAAYSIRSIGERPVLKAPVPKRQKCDHWTPCPSDTYAYRLLSGGGRSKYAKICFEDNLLMGEQLGNVARGINIAIVNYVTGNVTATRCFDMYEGDNSGPMTKFIQSAAPKSLLFMVTYDDGSTRLNNDAKNAIEALGSKEIRNMKFRSSWVFIAAKGLELPSEIQREKINHSDAKNNRYSGWPAEIQIEGCIPKERS
B3: CBR1 (protein, UniProt P16152 2-277, looked up)
Carbonyl reductase [NADPH] 1: SSGIHVALVTGGNKGIGLAIVRDLCRLFSGDVVLTARDVTRGQAAVQQLQAEGLSPRFHQLDIDDLQSIRALRDFLRKEYGGLDVLVNNAGIAFKVADPTPFHIQAEVTMKTNFFGTRDVCTELLPLIKPQGRVVNVSSIMSVRALKSCSPELQQKFRSETITEEELVGLMNKFVEDTKKGVHQKEGWPSSAYGVTKIGVTVLSRIHARKLSEQRKGDKILLNACCPGWVRTDMAGPKATKSPEEGAETPVYLALLPPDAEGPHGQFVSEKRVEQW
B4: NAGAB (protein, UniProt P17050 18-411, looked up)
Alpha-N-acetylgalactosaminidas …: LDNGLLQTPPMGWLAWERFRCNINCDEDPKNCISEQLFMEMADRMAQDGWRDMGYTYLNIDDCWIGGRDASGRLMPDPKRFPHGIPFLADYVHSLGLKLGIYADMGNFTCMGYPGTTLDKVVQDAQTFAEWKVDMLKLDGCFSTPEERAQGYPKMAAALNATGRPIAFSCSWPAYEGGLPPRVNYSLLADICNLWRNYDDIQDSWWSVLSILNWFVEHQDILQPVAGPGHWNDPDMLLIGNFGLSLEQSRAQMALWTVLAAPLLMSTDLRTISAQNMDILQNPLMIKINQDPLGIQGRRIHKEKSLIEVYMRPLSNKASALVFFSCRTDMPYRYHSSLGQLNFTGSVIYEAQDVYSGDIISGLRDETNFTVIINPSGVVMWYLYPIKNLEMSQQ
B5: PPM1A (protein, UniProt P35813 2-382, looked up)
Protein phosphatase 1A: GAFLDKPKMEKHNAQGQGNGLRYGLSSMQGWRVEMEDAHTAVIGLPSGLESWSFFAVYDGHAGSQVAKYCCEHLLDHITNNQDFKGSAGAPSVENVKNGIRTGFLEIDEHMRVMSEKKHGADRSGSTAVGVLISPQHTYFINCGDSRGLLCRNRKVHFFTQDHKPSNPLEKERIQNAGGSVMIQRVNGSLAVSRALGDFDYKCVHGKGPTEQLVSPEPEVHDIERSEEDDQFIILACDGIWDVMGNEELCDFVRSRLEVTDDLEKVCNEVVDTCLYKGSRDNMSVILICFPNAPKVSPEAVKKEAELDKYLECRVEEIIKKQGEGVPDLVHVMRTLASENIPSLPPGGELASKRNVIEAVYNRLNPYKNDDTDSTSTDDMW
B6: TAGL2 (protein, UniProt P37802 2-199, looked up)
Transgelin-2: ANRGPAYGLSREVQQKIEKQYDADLEQILIQWITTQCRKDVGRPQPGRENFQNWLKDGTVLCELINALYPEGQAPVKKIQASTMAFKQMEQISQFLQAAERYGINTTDIFQTVDLWEGKNMACVQRTLMNLGGLAVARDDGLFSGDPNWFPKKSKENPRNFSDNQLQEGKNVIGLQMGTNRGASQAGMTGYGMPRQIL
B7: FUT6 (protein, UniProt P51993 1-359, looked up)
4-galactosyl-N-acetylglucosami …: MDPLGPAKPQWSWRCCLTTLLFQLLMAVCFFSYLRVSQDDPTVYPNGSRFPDSTGTPAHSIPLILLWTWPFNKPIALPRCSEMVPGTADCNITADRKVYPQADAVIVHHREVMYNPSAQLPRSPRRQGQRWIWFSMESPSHCWQLKAMDGYFNLTMSYRSDSDIFTPYGWLEPWSGQPAHPPLNLSAKTELVAWAVSNWGPNSARVRYYQSLQAHLKVDVYGRSHKPLPQGTMMETLSRYKFYLAFENSLHPDYITEKLWRNALEAWAVPVVLGPSRSNYERFLPPDAFIHVDDFQSPKDLARYLQELDKDHARYLSYFRWRETLRPRSFSWALAFCKACWKLQEESRYQTRGIAAWFT
B8: HRG (protein, UniProt P04196 19-525, looked up)
Histidine-rich glycoprotein: VSPTDCSAVEPEAEKALDLINKRRRDGYLFQLLRIADAHLDRVENTTVYYLVLDVQESDCSVLSRKYWNDCEPPDSRRPSEIVIGQCKVIATRHSHESQDLRVIDFNCTTSSVSSALANTKDSPVLIDFFEDTERYRKQANKALEKYKEENDDFASFRVDRIERVARVRGGEGTGYFVDFSVRNCPRHHFPRHPNVFGFCRADLFYDVEALDLESPKNLVINCEVFDPQEHENINGVPPHLGHPFHWGGHERSSTTKPPFKPHGSRDHHHPHKPHEHGPPPPPDERDHSHGPPLPQGPPPLLPMSCSSCQHATFGTNGAQRHSHNNNSSDLHPHKHHSHEQHPHGHHPHAHHPHEHDTHRQHPHGHHPHGHHPHGHHPHGHHPHGHHPHCHDFQDYGPCDPPPHNQGHCCHGHGPPPGHLRRRGPGKGPRPFHCRQIGSVYRLPPLRKGEVLPLPEANFPSFPLPHHKHPLKPDNQPFPQSVSESCPGKFKSGFPQVSMFFTHTFPK
B9: FBLN3 (protein, UniProt Q12805 18-493, looked up)
EGF-containing fibulin-like …: QDTEETITYTQCTDGYEWDPVRQQCKDIDECDIVPDACKGGMKCVNHYGGYLCLPKTAQIIVNNEQPQQETQPAEGTSGATTGVVAASSMATSGVLPGGGFVASAAAVAGPEMQTGRNNFVIRRNPADPQRIPSNPSHRIQCAAGYEQSEHNVCQDIDECTAGTHNCRADQVCINLRGSFACQCPPGYQKRGEQCVDIDECTIPPYCHQRCVNTPGSFYCQCSPGFQLAANNYTCVDINECDASNQCAQQCYNILGSFICQCNQGYELSSDRLNCEDIDECRTSSYLCQYQCVNEPGKFSCMCPQGYQVVRSRTCQDINECETTNECREDEMCWNYHGGFRCYPRNPCQDPYILTPENRCVCPVSNAMCRELPQSIVYKYMSIRSDRSVPSDIFQIQATTIYANTINTFRIKSGNENGEFYLRQTSPVSAMLVLVKSLSGPREHIVDLEMLTVSSIGTFRTSSVLRLTIIVGPFSF
B10: HNRPQ (protein, UniProt O60506 2-623, looked up)
Heterogeneous nuclear …: ATEHVNGNGTEEPMDTTSAVIHSENFQTLLDAGLPQKVAEKLDEIYVAGLVAHSDLDERAIEALKEFNEDGALAVLQQFKDSDLSHVQNKSAFLCGVMKTYRQREKQGTKVADSSKGPDEAKIKALLERTGYTLDVTTGQRKYGGPPPDSVYSGQQPSVGTEIFVGKIPRDLFEDELVPLFEKAGPIWDLRLMMDPLTGLNRGYAFVTFCTKEAAQEAVKLYNNHEIRSGKHIGVCISVANNRLFVGSIPKSKTKEQILEEFSKVTEGLTDVILYHQPDDKKKNRGFCFLEYEDHKTAAQARRRLMSGKVKVWGNVGTVEWADPIEDPDPEVMAKVKVLFVRNLANTVTEEILEKAFSQFGKLERVKKLKDYAFIHFDERDGAVKAMEEMNGKDLEGENIEIVFAKPPDQKRKERKAQRQAAKNQMYDDYYYYGPPHMPPPTRGRGRGGRGGYGYPPDYYGYEDYYDYYGYDYHNYRGGYEDPYYGYEDFQVGARGRGGRGARGAAPSRGRGAAPPRGRAGYSQRGGPGSARGVRGARGGAQQQRGRGVRGARGGRGGNVGGKRKADGYNQPDSKRRQTNNQNWGSQPIAQQPLQGGDHSGNYGYKSENQEFYQDTFGQQWK
B11: SG1D2 (protein, UniProt O95969 22-90, looked up)
Secretoglobin family 1D …: EFCPALVSELLDFFFISEPLFKLSLAKFDAPPEAVAAKLGVKRCTDQMSLQKRSLIAEVLVKILKKCSV

The first data set is described as follows: Saliva proteomics: biomarker quantification by mass spectrometry SWATH in participants at risk of heart failure vs controls. Further details: species or system human. To be noted: differential expression (fold) between control and at-risk averages, saliva.
Consider B1, for which the “Control vs Risk” value is 1.84.
On the same count and under the same terms, the same measure for B2: 1.81; for B3: 1.81; for B4: 1.89.
As for B5, the “Control vs Risk” value is given as 1.87.

Staying with this data set, now noted: differential expression (fold) control vs 'at risk' group, saliva.
Consider B6, for which the “Control vs Risk” value was found to be 1.91.
For the molecule B7, the “Control vs Risk” value is recorded as 1.92.
The same measure, in the same setting: the same measure for B8: 1.90.
In the case of B9, the “Control vs Risk” value was 1.92.
Still for that read-out and setting: the same measure for B10: 1.93.

Staying with this data set, now noted: differential expression (fold) control vs 'at risk'; printed as larger/smaller average whatever the direction.
Consider B11, for which the “Control vs Risk” value was 5.22.

The same data set, now with this note: saliva, 'at risk' of heart failure group mean, mass spectrometry SWATH quantification.
On to B11, for which the AtRisk average was 191,255 ng/ml.

Staying with this data set, now noted: saliva, 'at risk' of heart failure group mean, mass spectrometry SWATH quantification, 20 samples.
Regarding B6, the AtRisk average is recorded as 2,543,935 ng/ml.
With B7, the AtRisk average is listed as 48,948 ng/ml.
For the molecule B8, the AtRisk average was 942,991 ng/ml.
Consider B9, for which the AtRisk average is given as 50,162 ng/ml.
Same read-out and setting: next, B10: 413,769 ng/ml.

Still in this data set, the particulars now being: saliva, 'at risk' of heart failure group mean, mass spectrometry SWATH, 20 samples.
Regarding B1, the AtRisk average was 176,637 ng/ml.
For B2, the AtRisk average is 949,144 ng/ml.
B3: the AtRisk average was 801,903 ng/ml.
Take B4: the AtRisk average is 57,000 ng/ml.
Take B5: the AtRisk average is 16,721 ng/ml.

The same data set, now with this note: saliva, control group mean, mass spectrometry SWATH quantification.
For the molecule B11, the Control average was 36,661 ng/ml.

Still in this data set, the particulars now being: saliva, control group mean, mass spectrometry SWATH quantification, 20 samples.
Consider B6, for which the Control average is given as 1,329,364 ng/ml.
Consider B7, for which the Control average is listed as 93,932 ng/ml.
Take B8: the Control average is 497,512 ng/ml.
B9: the Control average is recorded as 96,101 ng/ml.
On the same count and under the same terms, next, B10: 214,821 ng/ml.

The same data set, now with this note: saliva, control group mean, mass spectrometry SWATH, 20 samples.
As for B1, the Control average is given as 95,775 ng/ml.
With B2, the Control average is 1,715,875 ng/ml.
Still for that read-out and setting: the same measure for B3: 442,719 ng/ml; for B4: 30,226 ng/ml.
On to B5, for which the Control average is 31,211 ng/ml.
